We go through 15 molecules from PubChem BioAssay AID2685 (National Center for Advancing Translational Sciences (NCATS), 2010).

The nature of the assay: qHTS Assay for Lipid Storage Modulators in Drosophila S3 Cells.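 For cell number change: cells counted by Cell Tracker Red CMTPX staining in the red channel.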 The note with it: BODIPY lipid droplet fluorescence, 18-24 h; for cell number change: measured here: cell count max response, cells fed with added oleic acid. Summed up: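 Laser-scanning cytometry quantifies lipid droplet accumulation (500–530 nm total intensity; droplet/cell object ratio) in oleic acid-fed (400 uM added) Drosophila S3 cells treated with a concentration series. 20 uM Triacsin C defined 100% inhibition.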

[1] abbreviates: measured here: lipid fluorescence (Fed channel) AC50, cells fed with added oleic acid.
The mark [2] stands for this setting: measured here: cell number channel AC50, cells fed with added oleic acid.

The other results are listed elsewhere or left out. These are further read-outs of the screen, such as a control signal, another cell line or another target. No call is given for them. Compounds called inactive in the main read-out are mostly missing here. Words in brackets tell the shape of the fitted curve; partial curves, single points and poor fits give uncertain potencies.

As to `CC(C)C(C(=O)NCC1CCCO1)N(Cc1ccccc1)C(=O)CNS(=O)(=O)c1ccccc1` (stereo unspecified), the cell number change is -3.33%. For the same molecule, the AC50 under setting [1] was 0.82 µM [falling, single point].
`COc1ccc(S(=O)(=O)N2CCCCCC2)cc1NC(=O)Cc1cc(OC)c(OC)c(OC)c1`: the AC50 under setting [2] is 0.651 µM [rising, partial curve, poor fit].
With `COc1ccccc1C(=O)Nc1nc(-c2cccs2)c(NC(C)=O)s1`, the cell number change is -51.7%. Besides, the AC50 under setting [2] was 29.1 µM [falling, single point].
As for `CCN1CCS/C1=C/C=C/C1=[N+](CC)CCS1`, the cell number change was -58.6%. The AC50 under setting [2] is 6.51 µM [falling, full curve]. Moreover, the AC50 under setting [1] is 4.61 µM [falling, full curve].
Take `CCN(CC(=O)Nc1ccccc1OC)C(=O)c1ccc2[nH]c3c(c2c1)CC(C)CC3` (stereo unspecified): the cell number change was -8.06%. Further, the AC50 under setting [2] was 2.91 µM [rising, single point]. Under setting [1], the AC50 is 3.66 µM [rising, partial curve, poor fit].
Regarding `COc1cc(C(=S)N2CCCC2)cc(OC)c1O`, the cell number change was found to be 21.5%. Also, the AC50 under setting [1] was 2.06 µM [falling, partial curve].
Consider `COCCN1C2=C(C(=O)CC(C)(C)C2)C(c2ccc(OC)c(OC)c2)C2=C1CC(C)(C)CC2=O`, for which the cell number change is 14.7%.
For the molecule `CCN(C(=O)c1cc2c(C)nc3ccccc3c2o1)c1cc(Cl)ccc1OC`, the cell number change stood at 26.5%. In addition, the AC50 under setting [2] is 0.411 µM [rising, full curve, poor fit]. The AC50 under setting [1] is 0.461 µM [rising, full curve, poor fit].
With `CC1CN(S(=O)(=O)c2ccc(NC(=O)c3cc(-c4ccccc4O)n[nH]3)cc2)CC(C)O1` (stereo unspecified), the cell number change is -41.3%. For the same molecule, under setting [2], the AC50 is 32.6 µM [falling, partial curve, poor fit]. The AC50 under setting [1] is 32.6 µM [falling, partial curve, poor fit].
As for `CCN(CC)C(=O)CSc1nnc(NC(=O)CCc2ccccc2)s1`, the cell number change was determined as 75.8%. For the same molecule, under setting [2], the AC50 was 16.4 µM [rising, single point].
Regarding `CC(=O)c1ccc(N2CCN(C(=O)C3(S(=O)(=O)c4ccc(Cl)cc4)CC3)CC2)cc1`, the cell number change was -12.7%. Besides, under setting [1], the AC50 is 10.3 µM [falling, partial curve, poor fit].
For the molecule `Cn1c(SCC(=O)Nc2ccc(N3CCOCC3)cc2)nnc1-c1ccccc1`, the cell number change was found to be 6.95%.
For `Cc1nnc(NC(=O)CSc2nccn2Cc2ccc(F)cc2)s1`, the cell number change was 12.5%. Besides, the AC50 under setting [1] was 18.4 µM [rising, partial curve].
On to `Cc1ccccc1S(=O)(=O)N1CCN(C)CC1`, for which the cell number change was 11%. The AC50 under setting [1] is 29.1 µM [rising, single point].
As to `COC(=O)Nc1ccc(S(=O)(=O)N(CCO)CCO)cc1`, the cell number change was -29.3%. In addition, the AC50 under setting [2] was 0.146 µM [falling, full curve, poor fit].
